In paper PMC7819943, “Rice protein-binding microarrays: a tool to detect cis-acting elements near promoter regions in rice” one finds binding signal data, which are given here for 23 sequences.

By UniProt entry, the sequences of proteins in these tests, tags left out.
UniProt Q0JBA9, entry or part of it: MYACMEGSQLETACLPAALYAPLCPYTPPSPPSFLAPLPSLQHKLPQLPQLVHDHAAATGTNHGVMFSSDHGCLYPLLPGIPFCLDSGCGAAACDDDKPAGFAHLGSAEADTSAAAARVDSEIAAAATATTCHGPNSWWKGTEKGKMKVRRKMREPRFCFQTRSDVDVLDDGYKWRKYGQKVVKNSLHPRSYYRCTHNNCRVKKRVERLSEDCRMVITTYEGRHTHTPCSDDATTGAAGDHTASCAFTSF

This is one part of the list.

The target of the experiment is OsWRKY34 (Oryza sativa, UniProt Q0JBA9 1-250). The experiment in a line: protein-binding microarray (RPBM); PBS, 2% BSA, 51.3 ng/ul salmon testes DNA, 50 uM zinc acetate, 200 nM TF, 25 C, 1 h; high values mean tight binding. As to conditions: protein: recombinant; tags: N-terminal polyhistidine and DsRed monomer fusion (pET32a); label: CyDye5-dUTP incorporated in the synthesized complementary strand; 3' TTTTT single-stranded linker to array surface; dsDNA, one strand shown. The procedure, abridged:
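Polyhistidine-tagged DsRed fusions of transcription factors, joined at the N-terminus, were expressed in E. coli BL21-CodonPlus and isolated on Ni–NTA. They were incubated at 200 nM for 1 h at 25 °C on a custom Agilent array, double-stranded and BSA-blocked, in PBS with 2% BSA, salmon testes DNA and 50 µM zinc acetate. The binding signal is per-feature fluorescence intensity (arbitrary units) read on an Axon 4000B scanner after washing.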
As for “TGCAAACCCGCCTATTCAGGACGATCCAGACACATCACATCGGAGTCACCTAGTGCAG”, the binding signal was 8040 fluorescence intensity (a.u.).
“TAACCCGCCTCCGACTCTTGGTTCTGCTTCGCCTAACATTCGGAGTCACCTAGTGCAG”: the binding signal is 8480 fluorescence intensity (a.u.).
Turning to “CAATGCACTGTTCATCTTCAGTAGTTATGTTTTCTCAGTGCGGAGTCACCTAGTGCAG”, the binding signal is 10400 fluorescence intensity (a.u.).
On to “TGCACCCTCTCAACACTCCGCGGCAATAACTCCTTCGCCCCGGAGTCACCTAGTGCAG”, for which the binding signal is 8940 fluorescence intensity (a.u.).
As to “TGCTGTTGAGTTGCATTCCTGATTGCTTTGCCTTTTCTAACGGAGTCACCTAGTGCAG”, the binding signal is 8620 fluorescence intensity (a.u.).
As for “ATATATATGCAGCCAGCATCTCTCTCCCTGTGATCAAATTCGGAGTCACCTAGTGCAG”, the binding signal is 8310 fluorescence intensity (a.u.).
“GATATTATTTCGGCTGATTTTTTTTTTCATTTTTTATGAACGGAGTCACCTAGTGCAG”: the binding signal was 10200 fluorescence intensity (a.u.).
On to “AGTGAGTTTGTTTGTTTTGTTTTCCGCGCGTATGTTTTCCCGGAGTCACCTAGTGCAG”, for which the binding signal was 9060 fluorescence intensity (a.u.).
On to “GTGCTGCCCAATTCCTCCACGCATCGCTGCATTTGGGTGACGGAGTCACCTAGTGCAG”, for which the binding signal was 8800 fluorescence intensity (a.u.).
Turning to “CGGGGAGATCATGCTTCAATTCTTTCTCGGCGCGGCGGAGCGGAGTCACCTAGTGCAG”, the binding signal is 8700 fluorescence intensity (a.u.).
As for “GCAGCAGGTGGATTTGCTTTGCCCTTCTCGCTTTTGTACACGGAGTCACCTAGTGCAG”, the figure is 10600 fluorescence intensity (a.u.); as for “TTATTAACGATGGTTTGGTTGTGAGGTGTTGGAGTCCTTTCGGAGTCACCTAGTGCAG”, 8110 fluorescence intensity (a.u.); as for “ACCCTTCAACGTCTGCAGGCGCGCTTCGCGAACGCGGTCCCGGAGTCACCTAGTGCAG”, 9300 fluorescence intensity (a.u.).
Turning to “TTCTTTTGTTGTGTGGGTGTATGTTTTGGTTATGTGCATTCGGAGTCACCTAGTGCAG”, the binding signal was 8810 fluorescence intensity (a.u.).
Take “ACGATGGATCGTAATTTCGTATTACATGTTTATTTTTGACCGGAGTCACCTAGTGCAG”: the binding signal is 8200 fluorescence intensity (a.u.).
“TGTGCGGGTGATTTGTTATAACGACGCGTGTGGTGGGGCACGGAGTCACCTAGTGCAG”: the binding signal is 8770 fluorescence intensity (a.u.).
Consider “CCACATGCCGTCGTCGCCGTTCCAGTGCTTTCTGTCACCACGGAGTCACCTAGTGCAG”, for which the binding signal was 11800 fluorescence intensity (a.u.).
As to “CTCGCCATCTCTGCCGCCGGTCCGCCGCCTCGCTCGCTCGCGGAGTCACCTAGTGCAG”, the binding signal was 9470 fluorescence intensity (a.u.).
Take “ATCCCGCTTATCCCACTTCTAATTCATTTTTTCTTTTAAACGGAGTCACCTAGTGCAG”: the binding signal was 10900 fluorescence intensity (a.u.).
“TTGCTCGCAGCTGCTTCTCCCTCAGCCAATCTGTCTGATCCGGAGTCACCTAGTGCAG”: the binding signal is 8310 fluorescence intensity (a.u.).
The result for “GCTTTCAGTTTAGTCTAGTGCATGTGCAGGGCTTCCCATCCGGAGTCACCTAGTGCAG” reads 9860 fluorescence intensity (a.u.); that for “TTGTCCTGCGCTGTTCCTCTCTATCGACTCTCTCACTCCTCGGAGTCACCTAGTGCAG”, 13800 fluorescence intensity (a.u.).
For the sequence “CATCCCAGGTGGGGCCCTAGCCTACTTGTAGCACACCCGGCGGAGTCACCTAGTGCAG”, the binding signal is 8060 fluorescence intensity (a.u.).
